According to the supplement of paper PMC10849652:
The list shows a part of the results.

Sequences of proteins named here, by UniProt entry; tags and fusion partners are left off. A change or cut given only in a name is not applied to a line headed by its entry.
UniProt Q9Y5J6: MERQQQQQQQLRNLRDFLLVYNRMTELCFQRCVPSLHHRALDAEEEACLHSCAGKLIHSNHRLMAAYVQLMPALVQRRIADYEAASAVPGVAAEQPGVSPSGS
UniProt O75663: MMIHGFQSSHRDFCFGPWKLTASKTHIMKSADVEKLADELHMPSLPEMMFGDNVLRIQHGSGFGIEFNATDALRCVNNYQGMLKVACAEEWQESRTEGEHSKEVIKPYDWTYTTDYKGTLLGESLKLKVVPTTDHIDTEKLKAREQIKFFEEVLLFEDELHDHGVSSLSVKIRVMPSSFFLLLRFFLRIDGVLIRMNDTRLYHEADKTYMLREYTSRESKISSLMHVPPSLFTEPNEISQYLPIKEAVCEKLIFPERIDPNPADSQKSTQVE
UniProt P19532: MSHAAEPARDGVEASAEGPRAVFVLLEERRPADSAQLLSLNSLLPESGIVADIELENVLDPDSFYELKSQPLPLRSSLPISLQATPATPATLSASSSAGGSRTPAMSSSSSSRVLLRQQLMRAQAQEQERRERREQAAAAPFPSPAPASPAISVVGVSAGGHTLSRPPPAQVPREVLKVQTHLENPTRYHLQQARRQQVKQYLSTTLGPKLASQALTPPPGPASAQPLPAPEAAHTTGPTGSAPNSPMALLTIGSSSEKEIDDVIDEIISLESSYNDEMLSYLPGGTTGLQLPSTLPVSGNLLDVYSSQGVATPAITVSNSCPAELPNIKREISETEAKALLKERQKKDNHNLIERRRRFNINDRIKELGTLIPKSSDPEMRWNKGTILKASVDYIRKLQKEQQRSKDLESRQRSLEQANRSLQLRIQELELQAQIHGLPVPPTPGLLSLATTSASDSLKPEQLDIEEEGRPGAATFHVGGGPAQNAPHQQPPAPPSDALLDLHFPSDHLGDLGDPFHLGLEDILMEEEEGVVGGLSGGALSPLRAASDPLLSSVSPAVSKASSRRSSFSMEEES
UniProt Q9Y2W1: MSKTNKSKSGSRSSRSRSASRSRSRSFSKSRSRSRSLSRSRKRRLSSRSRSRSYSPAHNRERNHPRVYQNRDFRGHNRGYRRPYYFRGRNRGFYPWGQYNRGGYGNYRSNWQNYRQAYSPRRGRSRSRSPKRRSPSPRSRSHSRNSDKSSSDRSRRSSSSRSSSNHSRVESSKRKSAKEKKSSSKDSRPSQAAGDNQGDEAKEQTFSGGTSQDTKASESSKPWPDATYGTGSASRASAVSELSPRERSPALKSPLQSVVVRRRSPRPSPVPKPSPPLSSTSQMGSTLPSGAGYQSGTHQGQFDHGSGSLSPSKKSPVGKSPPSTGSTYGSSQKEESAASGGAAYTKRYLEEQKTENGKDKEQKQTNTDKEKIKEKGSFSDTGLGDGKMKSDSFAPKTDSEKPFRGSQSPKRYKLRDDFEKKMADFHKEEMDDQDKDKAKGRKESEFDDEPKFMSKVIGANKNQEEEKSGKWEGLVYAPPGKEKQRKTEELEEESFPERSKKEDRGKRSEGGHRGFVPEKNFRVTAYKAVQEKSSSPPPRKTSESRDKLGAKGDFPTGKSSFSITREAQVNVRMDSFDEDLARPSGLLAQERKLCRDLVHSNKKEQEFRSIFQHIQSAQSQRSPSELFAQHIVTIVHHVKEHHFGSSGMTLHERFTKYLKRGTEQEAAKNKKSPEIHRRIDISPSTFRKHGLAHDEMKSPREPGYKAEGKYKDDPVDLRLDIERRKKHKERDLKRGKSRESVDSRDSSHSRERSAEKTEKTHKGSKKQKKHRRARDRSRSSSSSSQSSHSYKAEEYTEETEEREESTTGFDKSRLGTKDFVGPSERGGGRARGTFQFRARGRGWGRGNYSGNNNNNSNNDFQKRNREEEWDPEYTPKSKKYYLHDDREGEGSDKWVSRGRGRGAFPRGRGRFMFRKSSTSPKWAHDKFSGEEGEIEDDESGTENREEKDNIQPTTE
UniProt Q9UHQ7: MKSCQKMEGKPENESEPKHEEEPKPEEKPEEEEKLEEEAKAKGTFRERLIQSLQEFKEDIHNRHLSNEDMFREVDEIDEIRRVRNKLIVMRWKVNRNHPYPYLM
UniProt Q66K14, whole entry, looked up: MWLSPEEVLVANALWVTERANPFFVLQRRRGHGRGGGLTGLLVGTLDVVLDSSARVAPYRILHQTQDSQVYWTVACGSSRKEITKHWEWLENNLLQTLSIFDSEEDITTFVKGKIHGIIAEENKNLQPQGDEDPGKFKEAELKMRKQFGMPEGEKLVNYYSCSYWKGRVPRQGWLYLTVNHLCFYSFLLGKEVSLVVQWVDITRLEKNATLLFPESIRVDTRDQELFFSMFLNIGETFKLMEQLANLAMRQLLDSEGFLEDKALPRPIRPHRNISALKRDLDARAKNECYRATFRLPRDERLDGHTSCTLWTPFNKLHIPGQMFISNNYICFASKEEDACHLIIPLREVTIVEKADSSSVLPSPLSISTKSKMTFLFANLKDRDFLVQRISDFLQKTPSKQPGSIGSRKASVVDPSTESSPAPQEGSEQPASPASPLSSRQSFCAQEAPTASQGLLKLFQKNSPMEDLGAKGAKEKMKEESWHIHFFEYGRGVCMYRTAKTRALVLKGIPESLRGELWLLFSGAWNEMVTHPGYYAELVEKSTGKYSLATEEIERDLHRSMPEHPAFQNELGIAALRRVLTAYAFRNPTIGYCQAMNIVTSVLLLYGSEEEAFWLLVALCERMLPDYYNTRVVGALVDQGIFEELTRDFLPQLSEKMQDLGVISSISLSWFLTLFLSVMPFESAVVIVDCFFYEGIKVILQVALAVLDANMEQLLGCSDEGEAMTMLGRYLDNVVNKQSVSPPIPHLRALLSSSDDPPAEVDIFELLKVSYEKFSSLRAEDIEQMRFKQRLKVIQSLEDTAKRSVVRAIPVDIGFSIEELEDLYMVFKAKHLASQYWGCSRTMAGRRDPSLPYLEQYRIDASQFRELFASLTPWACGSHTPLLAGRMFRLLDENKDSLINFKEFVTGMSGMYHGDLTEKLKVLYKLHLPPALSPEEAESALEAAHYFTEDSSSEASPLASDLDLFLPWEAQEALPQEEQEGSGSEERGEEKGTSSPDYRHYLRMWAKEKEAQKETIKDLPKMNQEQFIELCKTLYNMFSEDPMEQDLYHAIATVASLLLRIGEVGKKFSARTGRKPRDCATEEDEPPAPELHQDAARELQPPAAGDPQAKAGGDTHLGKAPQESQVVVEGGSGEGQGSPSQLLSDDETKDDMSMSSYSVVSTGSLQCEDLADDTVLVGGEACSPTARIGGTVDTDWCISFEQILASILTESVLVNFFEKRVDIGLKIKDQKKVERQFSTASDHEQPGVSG
UniProt Q9P2M4: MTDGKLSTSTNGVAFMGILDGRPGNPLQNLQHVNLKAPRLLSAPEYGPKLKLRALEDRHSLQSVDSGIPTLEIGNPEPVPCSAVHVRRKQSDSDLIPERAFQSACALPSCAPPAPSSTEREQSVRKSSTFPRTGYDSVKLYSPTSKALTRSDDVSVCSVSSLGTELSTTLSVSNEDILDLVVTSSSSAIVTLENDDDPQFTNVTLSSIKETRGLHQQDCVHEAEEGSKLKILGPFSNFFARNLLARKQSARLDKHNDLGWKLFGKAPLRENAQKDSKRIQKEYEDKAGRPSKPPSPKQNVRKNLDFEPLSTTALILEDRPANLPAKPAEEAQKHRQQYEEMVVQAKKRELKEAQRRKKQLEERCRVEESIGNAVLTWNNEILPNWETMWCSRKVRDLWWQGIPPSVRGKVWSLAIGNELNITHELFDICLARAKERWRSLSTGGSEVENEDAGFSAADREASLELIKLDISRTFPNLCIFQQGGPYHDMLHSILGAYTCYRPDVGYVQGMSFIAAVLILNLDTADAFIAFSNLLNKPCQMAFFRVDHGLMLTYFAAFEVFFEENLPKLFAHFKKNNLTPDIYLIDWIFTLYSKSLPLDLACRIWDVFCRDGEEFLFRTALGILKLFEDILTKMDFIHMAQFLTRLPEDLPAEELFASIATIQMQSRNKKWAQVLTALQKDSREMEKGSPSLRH
UniProt Q9NYB0: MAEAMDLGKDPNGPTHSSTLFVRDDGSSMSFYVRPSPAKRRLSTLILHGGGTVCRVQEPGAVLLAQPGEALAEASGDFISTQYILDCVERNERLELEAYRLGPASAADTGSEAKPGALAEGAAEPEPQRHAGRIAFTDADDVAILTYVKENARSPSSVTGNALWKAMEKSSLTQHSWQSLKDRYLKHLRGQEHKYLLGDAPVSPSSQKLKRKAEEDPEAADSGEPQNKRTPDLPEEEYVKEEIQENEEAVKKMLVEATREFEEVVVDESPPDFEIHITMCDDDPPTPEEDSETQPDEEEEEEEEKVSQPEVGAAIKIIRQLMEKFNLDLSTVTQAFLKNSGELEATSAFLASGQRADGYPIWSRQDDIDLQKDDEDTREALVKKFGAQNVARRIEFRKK
UniProt P62072: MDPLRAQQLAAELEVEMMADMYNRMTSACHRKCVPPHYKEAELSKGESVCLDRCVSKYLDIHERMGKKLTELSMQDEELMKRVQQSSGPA
UniProt Q9UPU7: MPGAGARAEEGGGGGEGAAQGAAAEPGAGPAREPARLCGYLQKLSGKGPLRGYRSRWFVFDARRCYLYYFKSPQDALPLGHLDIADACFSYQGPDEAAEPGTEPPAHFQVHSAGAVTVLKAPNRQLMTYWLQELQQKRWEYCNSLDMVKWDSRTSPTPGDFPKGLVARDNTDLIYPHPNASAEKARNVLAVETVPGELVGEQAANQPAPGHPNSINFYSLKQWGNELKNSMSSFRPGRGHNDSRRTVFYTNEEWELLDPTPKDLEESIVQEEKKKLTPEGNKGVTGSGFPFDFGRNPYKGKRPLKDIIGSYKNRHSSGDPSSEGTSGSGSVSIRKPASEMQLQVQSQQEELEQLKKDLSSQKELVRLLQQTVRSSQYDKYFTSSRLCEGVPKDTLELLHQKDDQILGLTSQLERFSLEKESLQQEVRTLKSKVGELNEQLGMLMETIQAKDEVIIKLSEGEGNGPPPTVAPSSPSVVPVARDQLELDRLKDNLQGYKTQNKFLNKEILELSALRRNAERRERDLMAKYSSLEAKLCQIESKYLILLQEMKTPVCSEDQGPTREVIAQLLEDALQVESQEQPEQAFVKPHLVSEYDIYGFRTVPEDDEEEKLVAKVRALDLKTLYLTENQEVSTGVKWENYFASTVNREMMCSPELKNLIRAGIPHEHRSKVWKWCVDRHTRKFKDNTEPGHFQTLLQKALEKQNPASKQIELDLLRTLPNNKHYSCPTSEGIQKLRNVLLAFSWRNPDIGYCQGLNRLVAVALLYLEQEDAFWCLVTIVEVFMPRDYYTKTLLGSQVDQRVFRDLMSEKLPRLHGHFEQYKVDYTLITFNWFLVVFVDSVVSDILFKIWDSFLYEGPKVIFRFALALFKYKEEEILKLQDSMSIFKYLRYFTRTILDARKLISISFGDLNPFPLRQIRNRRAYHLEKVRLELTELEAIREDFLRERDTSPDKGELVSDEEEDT
UniProt Q9BTW9: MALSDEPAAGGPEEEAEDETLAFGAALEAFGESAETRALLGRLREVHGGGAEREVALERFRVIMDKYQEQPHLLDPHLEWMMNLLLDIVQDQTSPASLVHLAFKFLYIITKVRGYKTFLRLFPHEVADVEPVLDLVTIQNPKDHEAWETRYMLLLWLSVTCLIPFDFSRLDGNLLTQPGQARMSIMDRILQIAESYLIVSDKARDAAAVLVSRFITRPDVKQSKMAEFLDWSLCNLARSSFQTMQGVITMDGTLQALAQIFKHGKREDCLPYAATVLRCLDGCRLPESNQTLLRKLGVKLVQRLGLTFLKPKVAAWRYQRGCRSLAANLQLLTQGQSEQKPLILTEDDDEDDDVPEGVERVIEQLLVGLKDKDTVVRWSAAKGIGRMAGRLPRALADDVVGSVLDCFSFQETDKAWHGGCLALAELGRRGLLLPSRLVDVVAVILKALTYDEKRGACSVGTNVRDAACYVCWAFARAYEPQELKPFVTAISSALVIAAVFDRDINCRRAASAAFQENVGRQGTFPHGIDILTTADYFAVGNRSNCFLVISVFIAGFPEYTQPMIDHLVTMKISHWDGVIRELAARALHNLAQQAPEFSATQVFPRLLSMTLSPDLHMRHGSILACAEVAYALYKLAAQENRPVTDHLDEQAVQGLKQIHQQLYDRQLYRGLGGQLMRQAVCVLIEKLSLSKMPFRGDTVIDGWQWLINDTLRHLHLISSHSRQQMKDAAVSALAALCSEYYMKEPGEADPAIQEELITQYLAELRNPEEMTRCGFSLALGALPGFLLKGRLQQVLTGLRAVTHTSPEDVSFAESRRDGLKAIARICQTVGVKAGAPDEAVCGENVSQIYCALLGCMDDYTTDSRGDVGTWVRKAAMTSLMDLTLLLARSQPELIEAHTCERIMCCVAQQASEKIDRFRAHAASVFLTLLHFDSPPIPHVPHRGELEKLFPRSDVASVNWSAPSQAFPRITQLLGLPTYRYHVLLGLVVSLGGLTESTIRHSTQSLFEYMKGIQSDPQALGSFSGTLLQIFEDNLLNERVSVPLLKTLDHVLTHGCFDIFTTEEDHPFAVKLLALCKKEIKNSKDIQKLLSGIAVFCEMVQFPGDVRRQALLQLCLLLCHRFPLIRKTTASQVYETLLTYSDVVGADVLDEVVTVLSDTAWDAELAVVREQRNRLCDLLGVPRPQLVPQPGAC

Columns and labels:
Experiment in all cases: log2 fold change, soluble protein after heating vs DMSO (PISA); higher = thermal stabilisation; K562 cells, 10 uM, 30 min; active = over 0.2 and 3.5 SD of the protein, either way, in both replicates (recomputed)
[1] = compound: CS(=O)(=O)c1ccc(-c2cnc(N)c(C(=O)Nc3ccccc3)n2)cc1
Procedure, shortened: (§1)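 Soluble protein was quantified by TMTpro 16plex LC-MS/MS after channel sums were equalised. It was obtained as the supernatant after 21,000xg for 90 min from pooled aliquots of K562 cells (2×10^6 cells/mL, 10 μM compound, 30 min) heated for 3 min across 48°C-58°C and extracted in PBS with 0.5% NP-40 at 4°C. Thermal stability values are relative to control samples and come from duplicates. They are given as log2 fold changes.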

crizotinib = compound: C[C@@H](Oc1cc(-c2cnn(C3CCNCC3)c2)cnc1N)c1c(Cl)ccc(F)c1Cl [crizotinib]
Procedure, shortened: as §1

[2] = compound: C[C@@H]1COCCN1C2=NC(=NC(=C2)C3(CC3)S(=O)(=O)C)C4=C5C=CNC5=CC=C4
Procedure, shortened: as §1

[3] = compound: C[C@H](C1=CC=C(C=C1)C(=O)NC2=C3C=CNC3=NC=C2)N
Procedure, shortened: as §1

gandotinib = compound: Cc1cc(Nc2cc(CN3CCOCC3)c3nc(C)c(Cc4ccc(Cl)cc4F)n3n2)n[nH]1 [gandotinib]
Procedure, shortened: as §1

[4] = compound: Cc1cc(SCc2sc(-c3ccc(C(F)(F)F)cc3)nc2C)ccc1OCC(=O)O
Procedure, shortened: as §1

doramapimod = compound: Cc1ccc(-n2nc(C(C)(C)C)cc2NC(=O)Nc2ccc(OCCN3CCOCC3)c3ccccc23)cc1 [doramapimod]
Procedure, shortened: as §1

ispinesib = compound: Cc1ccc(C(=O)N(CCCN)[C@@H](c2nc3cc(Cl)ccc3c(=O)n2Cc2ccccc2)C(C)C)cc1 [ispinesib]
Procedure, shortened: as §1

bafetinib = compound: Cc1ccc(NC(=O)c2ccc(CN3CC[C@H](N(C)C)C3)c(C(F)(F)F)c2)cc1Nc1nccc(-c2cncnc2)n1 [bafetinib]
Procedure, shortened: as §1

[5] = compound: Cc1cccc(CC(=O)N2CCc3c2ccc(-c2cn(C)c4ncnc(N)c24)c3F)n1
Procedure, shortened: as §1

nilotinib = compound: Cc1cn(-c2cc(NC(=O)c3ccc(C)c(Nc4nccc(-c5cccnc5)n4)c3)cc(C(F)(F)F)c2)cn1 [nilotinib]
Procedure, shortened: as §1

[6] = compound: Cc1nc(Nc2n[nH]c3c2CN(C(=O)N[C@H](CN(C)C)c2ccccc2)C3(C)C)c2sccc2n1
Procedure, shortened: as §1

dasatinib = compound: Cc1nc(Nc2ncc(C(=O)Nc3c(C)cccc3Cl)s2)cc(N2CCN(CCO)CC2)n1 [dasatinib]
Procedure, shortened: as §1

[7] = compound: Cc1ncc(-c2ccnc(Nc3ccc(S(C)(=O)=O)cc3)n2)n1C(C)C
Procedure, shortened: as §1

[8] = compound: Cn1cc(-c2ccc3c(c2)CCN3C(=O)Cc2cccc(C(F)(F)F)c2)c2c(N)ncnc21
Procedure, shortened: as §1

[9] = compound: Cn1cc(-c2ccc3nnc(C(F)(F)c4ccc5ncccc5c4)n3n2)cn1
Procedure, shortened: as §1

tipifarnib = compound: Cn1cncc1[C@@](N)(c1ccc(Cl)cc1)c1ccc2c(c1)c(-c1cccc(Cl)c1)cc(=O)n2C [tipifarnib]
Procedure, shortened: as §1

mubritinib = compound: FC(F)(F)c1ccc(/C=C/c2nc(COc3ccc(CCCCn4ccnn4)cc3)co2)cc1 [mubritinib]
Procedure, shortened: as §1

tozasertib = compound: Cc1cc(Nc2cc(N3CCN(C)CC3)nc(Sc3ccc(NC(=O)C4CC4)cc3)n2)n[nH]1 [tozasertib]
Procedure, shortened: as §1

duvelisib = compound: C[C@H](Nc1ncnc2nc[nH]c12)c1cc2cccc(Cl)c2c(=O)n1-c1ccccc1 [duvelisib]
Procedure, shortened: as §1

Target | log2 fold change [1] | log2 fold change (crizotinib) | log2 fold change [2] | log2 fold change [3] | log2 fold change (gandotinib) | log2 fold change [4] | log2 fold change (doramapimod) | log2 fold change (ispinesib) | log2 fold change (bafetinib) | log2 fold change [5] | log2 fold change (nilotinib) | log2 fold change [6] | log2 fold change (dasatinib) | log2 fold change [7] | log2 fold change [8] | log2 fold change [9] | log2 fold change (tipifarnib) | log2 fold change (mubritinib) | log2 fold change (tozasertib) | log2 fold change (duvelisib)
TJP2 isoform 7 (UniProt Q9UDY2) | inactive: 0.006 | inactive: -0.026 | inactive: 0.064 | inactive: -0.017 | inactive: -0.089 | inactive: 0.071 | inactive: 0.068 | inactive: -0.065 | inactive: 0.05 | inactive: 0.149 | inactive: 0.014 | inactive: -0.207 | inactive: -0.191 | inactive: -0.025 | inactive: 0.009 | inactive: 0.014 | inactive: -0.094 | inactive: 0.002 |  | 
TBC1D5 isoform 2 (UniProt Q92609) | inactive: 0 | inactive: -0.24 | inactive: -0.003 | inactive: 0.084 | inactive: -0.255 | inactive: 0.142 | inactive: -0.031 | inactive: -0.268 | inactive: -0.126 | inactive: 0.017 | inactive: -0.076 | inactive: -0.052 | inactive: -0.232 | inactive: 0.007 | inactive: -0.067 | inactive: -0.005 | inactive: -0.177 | inactive: -0.017 |  | 
TIMM10B (UniProt Q9Y5J6) | inactive: 0.107 |  | inactive: 0.129 | inactive: 0.031 | inactive: 0.087 | inactive: -0.161 |  | inactive: 0.077 | inactive: 0.4 | inactive: -0.138 | inactive: 0.006 | inactive: -0.04 | inactive: 0.138 | inactive: -0.052 | inactive: 0.01 | inactive: 0.224 | inactive: -0.001 | inactive: 0.065 |  | 
TIPRL (UniProt O75663) | inactive: 0.065 | inactive: -0.167 | inactive: 0.143 | inactive: -0.023 | inactive: -0.159 | inactive: 0.065 | inactive: -0.034 | inactive: -0.055 | inactive: -0.052 | inactive: 0.066 | inactive: -0.022 | inactive: -0.025 | inactive: -0.103 | inactive: -0.035 | inactive: 0.032 | inactive: 0.048 | inactive: -0.16 | inactive: 0.098 |  | 
TFE3 (UniProt P19532) | inactive: -0.234 | inactive: -0.414 | inactive: -0.546 |  |  |  | inactive: -0.032 | inactive: -0.185 | inactive: -0.249 |  |  |  |  |  |  | inactive: 0.22 |  |  | inactive: -0.185 | 
THRAP3 (UniProt Q9Y2W1) | inactive: 0.014 | inactive: 0.04 | inactive: 0.019 | inactive: -0.111 | inactive: -0.003 | inactive: -0.071 | inactive: 0.133 | inactive: -0.043 | inactive: 0.052 | inactive: -0.025 | inactive: 0.049 | inactive: -0.177 | inactive: -0.009 | inactive: 0 | inactive: -0.045 | inactive: -0.033 | inactive: 0.118 | inactive: 0.063 |  | 
TCEAL9 (UniProt Q9UHQ7) | inactive: -0.181 |  | inactive: -0.458 |  |  |  |  |  |  |  |  |  |  |  |  |  |  |  |  | 
TIMM44 (UniProt O43615) | inactive: -0.028 | inactive: -0.207 | inactive: 0.056 | inactive: -0.015 | inactive: -0.258 | inactive: 0.091 | inactive: -0.035 | inactive: -0.128 | active: -0.355 | inactive: 0.045 | inactive: -0.062 | inactive: -0.066 | inactive: -0.192 | inactive: 0.006 | inactive: 0.026 | inactive: -0.002 | inactive: -0.054 | inactive: 0.001 |  | 
TK1 (UniProt K7ERV3) | inactive: 0 |  | inactive: 0.021 | inactive: 0.182 | inactive: -0.029 | inactive: -0.041 |  | inactive: 0.005 | inactive: -0.03 | inactive: 0.022 | inactive: -0.108 | inactive: -0.018 | inactive: 0.018 | inactive: -0.076 | inactive: 0.176 | inactive: 0.016 | inactive: 0.03 | inactive: 0.037 |  | 
TGFBI (UniProt Q15582) | inactive: -0.021 | inactive: -0.047 | inactive: 0.215 | inactive: 0.181 | inactive: -0.451 | inactive: 0.043 | inactive: -0.182 | inactive: -0.159 | inactive: -0.241 | inactive: 0.148 | inactive: -0.099 | inactive: 0.054 | inactive: -0.04 | inactive: 0.167 | inactive: 0.197 | inactive: 0.098 | inactive: -0.063 | inactive: -0.02 |  | 
TBC1D20 isoform 3 (UniProt Q96BZ9) | inactive: 0.039 | inactive: -0.121 | inactive: 0.088 | inactive: 0.036 | inactive: -0.078 |  | inactive: 0.05 | inactive: 0.113 | inactive: -0.03 | inactive: -0.083 | inactive: 0.07 | inactive: -0.023 |  | inactive: 0.033 | inactive: 0.121 | inactive: 0.233 | inactive: -0.077 | inactive: 0.129 |  | 
TBC1D9B (UniProt Q66K14) | inactive: 0.041 | inactive: -0.084 | inactive: 0.016 | inactive: 0.008 | inactive: 0.024 | inactive: 0.072 | inactive: 0.007 | inactive: -0.127 | inactive: -0.262 | inactive: -0.042 | inactive: -0.055 | inactive: 0.053 | inactive: -0.156 | inactive: -0.034 | inactive: 0.07 | inactive: -0.06 | inactive: 0.019 | inactive: 0.203 |  | 
TBC1D24 (UniProt Q9ULP9) | inactive: 0.018 | inactive: -0.235 | inactive: 0.08 | inactive: -0.014 | inactive: -0.361 | inactive: 0.073 | inactive: 0.061 | inactive: -0.218 | inactive: -0.007 | inactive: 0.049 | inactive: -0.069 | active: -0.318 | inactive: -0.15 | inactive: -0.219 | inactive: 0.098 | inactive: -0.045 | inactive: -0.106 | inactive: 0.097 |  | 
TFRC (UniProt P02786) | inactive: 0.026 | active: -0.283 | inactive: 0.012 | inactive: -0.018 | inactive: -0.011 | inactive: -0.023 | inactive: -0.012 | inactive: -0.059 | active: -0.277 | inactive: -0.038 | inactive: -0.005 | inactive: -0.043 | inactive: 0.009 | inactive: -0.018 | inactive: 0.012 | inactive: 0.027 | inactive: -0.004 | inactive: 0.052 |  | 
TBC1D14 (UniProt Q9P2M4) | inactive: -0.52 |  | inactive: 0.141 |  | inactive: -0.055 |  |  | inactive: 0.122 |  | inactive: -0.111 |  |  |  |  |  | inactive: 0.063 | inactive: -0.058 | inactive: 0.162 | inactive: -0.182 | 
TEX264 (UniProt Q9Y6I9) | inactive: 0.361 | inactive: 0.079 | inactive: 0.064 | inactive: 0.176 | inactive: -0.059 | inactive: -0.028 | inactive: 0.039 | inactive: -0.016 | inactive: 0.391 | inactive: 0.007 | inactive: 0.241 | inactive: 0.111 | inactive: 0.265 | active: 0.845 | inactive: 0.047 | inactive: 0.114 | inactive: -0.006 | inactive: 0.047 |  | 
TERF2IP (UniProt Q9NYB0) | inactive: -0.021 | inactive: 0.085 | inactive: -0.072 | inactive: -0.099 | inactive: 0.028 | inactive: 0.005 | inactive: -0.019 | inactive: 0.044 | inactive: -0.051 | inactive: -0.008 | inactive: -0.006 | inactive: -0.163 | inactive: -0.028 | inactive: -0.128 | inactive: -0.078 | inactive: -0.033 | inactive: 0.074 | inactive: -0.014 |  | 
TIMM10 (UniProt P62072) | inactive: -0.035 | inactive: 0.051 | inactive: 0.099 | inactive: -0.006 | inactive: 0.052 | inactive: 0.027 | inactive: 0.021 | inactive: 0.103 | inactive: -0.081 | inactive: 0.027 | inactive: 0.014 | inactive: 0.005 | inactive: 0.114 | inactive: -0.027 | inactive: -0.05 | inactive: 0.153 | inactive: 0.048 | inactive: -0.024 |  | 
TBC1D2B (UniProt Q9UPU7) | inactive: 0.045 | inactive: -0.009 |  |  |  | inactive: 0.162 | inactive: 0.059 |  | inactive: -0.012 |  | inactive: -0.007 | inactive: 0.091 | inactive: 0.136 | inactive: -0.067 |  |  |  | inactive: 0.052 |  | inactive: 0.007
TBCD (UniProt Q9BTW9) | inactive: -0.069 | inactive: 0.001 | inactive: 0.061 | inactive: -0.034 | inactive: -0.104 | inactive: 0.009 | inactive: 0.004 | inactive: -0.032 | inactive: -0.064 | inactive: 0.029 | inactive: -0.101 | inactive: -0.078 | inactive: -0.086 | inactive: -0.025 | inactive: 0.007 | inactive: 0.025 | inactive: -0.038 | inactive: -0.039 |  | 

Taken from the results shown for reference:
Target | log2 fold change [1] | log2 fold change (crizotinib) | log2 fold change [2] | log2 fold change [3] | log2 fold change (gandotinib) | log2 fold change [4] | log2 fold change (doramapimod) | log2 fold change (ispinesib) | log2 fold change (bafetinib) | log2 fold change [5] | log2 fold change (nilotinib) | log2 fold change [6] | log2 fold change (dasatinib) | log2 fold change [7] | log2 fold change [8] | log2 fold change [9] | log2 fold change (tipifarnib) | log2 fold change (mubritinib) | log2 fold change (tozasertib) | log2 fold change (duvelisib)
TIPRL (UniProt O75663) | inactive: 0.065 | inactive: -0.167 | inactive: 0.143 | inactive: -0.023 | inactive: -0.159 | inactive: 0.065 | inactive: -0.034 | inactive: -0.055 | inactive: -0.052 | inactive: 0.066 | inactive: -0.022 | inactive: -0.025 | inactive: -0.103 | inactive: -0.035 | inactive: 0.032 | inactive: 0.048 | inactive: -0.16 | inactive: 0.098 |  | 
TFE3 (UniProt P19532) | inactive: -0.234 | inactive: -0.414 | inactive: -0.546 |  |  |  | inactive: -0.032 | inactive: -0.185 | inactive: -0.249 |  |  |  |  |  |  | inactive: 0.22 |  |  | inactive: -0.185 | 
THRAP3 (UniProt Q9Y2W1) | inactive: 0.014 | inactive: 0.04 | inactive: 0.019 | inactive: -0.111 | inactive: -0.003 | inactive: -0.071 | inactive: 0.133 | inactive: -0.043 | inactive: 0.052 | inactive: -0.025 | inactive: 0.049 | inactive: -0.177 | inactive: -0.009 | inactive: 0 | inactive: -0.045 | inactive: -0.033 | inactive: 0.118 | inactive: 0.063 |  | 
TCEAL9 (UniProt Q9UHQ7) | inactive: -0.181 |  | inactive: -0.458 |  |  |  |  |  |  |  |  |  |  |  |  |  |  |  |  | 
